Reference: PubChem BioAssay AID686943 (Drosophila RNAi Screening Center, 2013)
The deposit covers about 23,000 reagents; below is an unselected part of those with a known target gene and a result. 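Extra replicates exist only for a retested subset of genes; insulin dose and duration not given; both raised and lowered dpERK matter.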 Not all columns of the deposit are shown. The record does not give: the amount of reagent, the time to read-out.

- Assay: 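Fly genes whose loss alters ERK activation after insulin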 (primary screen)
- System: Drosophila S2R+ haemocyte-like cells expressing YFP-tagged ERK (Rolled)
- Reagent: long dsRNA against Drosophila genes
- Treatment: insulin stimulation versus unstimulated cells; dose and duration not given
- Read-out: 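Antibody staining for doubly phosphorylated ERK divided by ERK-YFP signal, as plate z-scores, in insulin-treated and untreated cells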
- Scale: replicate 1, z-score of dpERK with insulin and replicate 2, z-score of dpERK with insulin: higher = more active ERK per ERK-YFP after insulin

Against CG30039 [DRSC21794] the deposit lists replicate 1, z-score of dpERK with insulin -0.3; replicate 2, z-score of dpERK with insulin 0.28.
Depletion of CG30096 [DRSC21744] resulted in: replicate 1, z-score of dpERK with insulin 0; replicate 2, z-score of dpERK with insulin -0.24.
Against MAGE [DRSC12504], the entry reads replicate 1, z-score of dpERK with insulin 0.79; replicate 2, z-score of dpERK with insulin 0.25.
With knock-down of Svil [DRSC07981] the results were replicate 1, z-score of dpERK with insulin -0.76; replicate 2, z-score of dpERK with insulin -0.38.
Svil [DRSC08296] gave replicate 1, z-score of dpERK with insulin -0.36; replicate 2, z-score of dpERK with insulin -0.36.
Svil [DRSC08332] gave replicate 1, z-score of dpERK with insulin -0.85; replicate 2, z-score of dpERK with insulin -0.63.
Depletion of Svil [DRSC08333] came out at: replicate 1, z-score of dpERK with insulin -4.43; replicate 2, z-score of dpERK with insulin -2.66.
For Svil [DRSC08494] the deposit lists replicate 1, z-score of dpERK with insulin -0.55; replicate 2, z-score of dpERK with insulin -0.04.
Su(var)2-10 [DRSC07721] scored replicate 1, z-score of dpERK with insulin -0.6; replicate 2, z-score of dpERK with insulin -1.06.
Dic3 [DRSC06058] scored replicate 1, z-score of dpERK with insulin 0.55; replicate 2, z-score of dpERK with insulin 0.07.
CG13064 [DRSC09947] scored replicate 1, z-score of dpERK with insulin 0.46; replicate 2, z-score of dpERK with insulin -0.04.
With knock-down of CG31106 [DRSC14655] the results were replicate 1, z-score of dpERK with insulin -0.09; replicate 2, z-score of dpERK with insulin 0.
After knock-down of CG32643 [DRSC18962], the record shows replicate 1, z-score of dpERK with insulin 0.12; replicate 2, z-score of dpERK with insulin 0.18.
After knock-down of CG31465 [DRSC16090], the record shows replicate 1, z-score of dpERK with insulin -0.53; replicate 2, z-score of dpERK with insulin 0.01.

3 entries from above, reformatted.
target gene	DRSC id	replicate 1, z-score of dpERK with insulin	replicate 2, z-score of dpERK with insulin
CG30096	DRSC21744	0	-0.24
MAGE	DRSC12504	0.79	0.25
Svil	DRSC07981	-0.76	-0.38

The list goes on:
CG1239 [DRSC12204] showed replicate 1, z-score of dpERK with insulin -0.16; replicate 2, z-score of dpERK with insulin 0.4.
With knock-down of Rpp25 [DRSC05002], the record shows replicate 1, z-score of dpERK with insulin 2.05; replicate 2, z-score of dpERK with insulin 0.58.
Against CG12231 [DRSC19445] the deposit lists replicate 1, z-score of dpERK with insulin -0.36; replicate 2, z-score of dpERK with insulin -0.07.
With knock-down of AP-1mu [DRSC14089], the screen gave replicate 1, z-score of dpERK with insulin -0.89; replicate 2, z-score of dpERK with insulin -0.16.
CG8006 [DRSC10949] gave replicate 1, z-score of dpERK with insulin -0.43; replicate 2, z-score of dpERK with insulin -2.38.
With knock-down of CR13656 [DRSC13705] the results were replicate 1, z-score of dpERK with insulin 0.43; replicate 2, z-score of dpERK with insulin -0.28.
For CR13656 [DRSC14656], the entry reads replicate 1, z-score of dpERK with insulin 0.05; replicate 2, z-score of dpERK with insulin 1.03.
